Laboratory results: the supplement of paper PMC11637464
Where a name gives a salt, the structure may show the parent alone. Some of the results follow. Most values come without repeats; read them as rough.

System: primary mouse Muller glia with Ascl1 overexpression
Assay: Neuronal cell count fold change vs Ascl1-only control (log2 fold change); higher = more neurogenesis
Experimental: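 Primary P11 mouse Muller glia carrying dox-inducible Ascl1 were treated with Tocriscreen Stem Cell Library compounds at 0.1, 1 or 10 uM together with doxycycline for 5 days, then profiled by sci-Plex hashing and sci-RNA-seq2. Cells were annotated by marker genes and cell-type counts per well were size-factor adjusted. Read-outs are the log2 fold change of Neuronal (NeuPre + bipolar) and ProL cell counts versus the Ascl1-only control wells of the same collection day, plus the raw number of recovered cells per well. There is one well per dose, and wells with fewer than 20 cells were discarded.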

SMILES | Neuronal cell count fold change (0.1 µM) | Neuronal cell count fold change (1 µM) | Neuronal cell count fold change (10 µM)
CN(C)C(=N)NC(=N)N [Metformin hydrochloride] (collection day: 1) | -0.184 | -0.322 | -0.556
CCc1ccc(CCOc2ccc(CC3SC(=O)NC3=O)cc2)nc1 (centres undefined) [Pioglitazone hydrochloride] (collection day: 2) | 0 | 0 | -2.7
COc1cccc(Oc2cccc3nc(Nc4ccc(C(C)C)cc4)nc(N)c23)c1 (collection day: 2) | -0.115 | 0.206 | –
O=c1cc(N2CCOCC2)oc2c(-c3ccccc3)cccc12 (collection day: 1) | -0.943 | -0.322 | -1.84
O=C(NNc1ccccc1)c1ccncc1 [PluriSln 1] (collection day: 2) | 0.206 | 0 | -0.115
COc1ccn2ncc(-c3nc4[nH]nc(NC(=O)c5ccc(F)cc5)c4cc3F)c2c1 (collection day: 2) | -0.241 | -1.12 | -1.7
O=C(NO)c1ccc2[nH]c(=O)c(CCCc3ccccc3)nc2c1 (collection day: 2) | -0.379 | -1.12 | -1.7
Cc1ccc(/C=N/NC(=O)c2ccccc2Oc2ccccc2)o1 (collection day: 2) | -0.7 | 0 | -0.115
Cc1ccccc1NC(=O)Nc1ccc(CC(=O)N(C)[C@@H](CC(C)C)C(=O)NCC[C@H](NC(=O)[C@@H]2CCCN2S(=O)(=O)c2cc(Cl)cc(Cl)c2)C(=O)O)cc1 (collection day: 2) | 0.107 | 0.206 | 0.206
CCCCCC[C@@H]([C@@H](C)O)n1cnc2c(N)ncnc21 [EHNA hydrochloride] (collection day: 1) | 0.0566 | -0.322 | –
Cc1nn(-c2ccccc2)c(C)c1C=NN1CCN(Cc2ccccc2)CC1 (collection day: 1) | -0.252 | -0.12 | -0.474
O=C(O)CCCc1ccccc1 [Sodium 4-Phenylbutyrate] (collection day: 1) | -0.474 | 0.263 | -0.252
COc1cc2nc(N3CCCN(C)CC3)nc(NC3CCN(Cc4ccccc4)CC3)c2cc1OC (collection day: 2) | 0 | 0.107 | –
O=C(O)c1ccccc1C(=O)Nc1ccc(-c2ccccc2)cc1 [Kartogenin] (collection day: 2) | 0.387 | -0.531 | 0

Entries of single compounds as entered above. Values in the order: Neuronal cell count fold change (0.1 µM)	Neuronal cell count fold change (1 µM)	Neuronal cell count fold change (10 µM)
COc1cc2nc(N3CCCN(C)CC3)nc(NC3CCN(Cc4ccccc4)CC3)c2cc1OC (collection day: 2) in the list: 0	0.107	–
COc1ccn2ncc(-c3nc4[nH]nc(NC(=O)c5ccc(F)cc5)c4cc3F)c2c1 (collection day: 2) in the list: -0.241	-1.12	-1.7
